# Reference: PMC7819943, “Rice protein-binding microarrays: a tool to detect cis-acting elements near promoter regions in rice”
# Amino acid sequences for entries named in this document (tags omitted).
# UniProt Q0JBA9, entry or part of it: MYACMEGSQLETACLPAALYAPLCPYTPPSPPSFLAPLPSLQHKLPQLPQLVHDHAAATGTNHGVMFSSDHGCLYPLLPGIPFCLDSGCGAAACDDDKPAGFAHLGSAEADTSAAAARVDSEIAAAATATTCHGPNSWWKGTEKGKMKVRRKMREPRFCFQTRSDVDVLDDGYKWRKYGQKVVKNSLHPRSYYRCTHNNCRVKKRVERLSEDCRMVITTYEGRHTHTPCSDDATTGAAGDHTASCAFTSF
# The list shows a part of the results.
# Biological target: OsWRKY34 (Oryza sativa, UniProt Q0JBA9 1-250)
# Assay: protein-binding microarray (RPBM); PBS, 2% BSA, 51.3 ng/ul salmon testes DNA, 50 uM zinc acetate, 200 nM TF, 25 C, 1 h; high values mean tight binding
# Settings: protein: recombinant; tags: N-terminal polyhistidine and DsRed monomer fusion (pET32a); label: CyDye5-dUTP incorporated in the synthesized complementary strand; 3' TTTTT single-stranded linker to array surface; dsDNA, one strand shown
# Outline: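 Ni–NTA purification followed expression in E. coli BL21-CodonPlus of transcription factors fused N-terminally to a polyhistidine tag and DsRed. At 200 nM in PBS with 2% BSA, salmon testes DNA and 50 µM zinc acetate, the protein was incubated for 1 h at 25 °C with a custom Agilent array that had been primer-extended with Cy5-dUTP and blocked with 2% BSA. After washing, the array was read on an Axon 4000B scanner. The binding signal is per-feature fluorescence intensity in arbitrary units.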
row,Sequence,binding signal
1,TCCGCACTCCTTGTCGCACATCCCCGCGGGCATGCCCGTTCGGAGTCACCTAGTGCAG,8830 fluorescence intensity (a.u.)
2,GATAGCCACATATATATCGTTGTTTCCTGCTACTAATATACGGAGTCACCTAGTGCAG,8350 fluorescence intensity (a.u.)
3,CATGATTTTACTTTCTTTTCAGGTCTTAGGAGTGAGCTTCCGGAGTCACCTAGTGCAG,8720 fluorescence intensity (a.u.)
4,TACATACACACATGCTAGCTACTCTCATCACTCTAAATTCCGGAGTCACCTAGTGCAG,10500 fluorescence intensity (a.u.)
5,ACGCCGACGCCTCCTCCACCGTCGATTTGCACTTGCGCACCGGAGTCACCTAGTGCAG,11200 fluorescence intensity (a.u.)
6,GGGCCCACCTATCAGGCCTGTCCACGTTGACCACATCGCGCGGAGTCACCTAGTGCAG,12200 fluorescence intensity (a.u.)
7,TTTGGTACACATTCATGTATCGACCGTATTTTCATGTCCTCGGAGTCACCTAGTGCAG,8180 fluorescence intensity (a.u.)
8,AATCCTCTGTATCACCCCAAAAATTGTTTGTAATTCTGTTCGGAGTCACCTAGTGCAG,9280 fluorescence intensity (a.u.)
9,ACCGGCCCAGAACAGTTGGGCAGCCCACGAAGTCACCAACCGGAGTCACCTAGTGCAG,8540 fluorescence intensity (a.u.)
10,ACACCATCCTTCGATTATTCATTTATTCTTGCCTGACTGACGGAGTCACCTAGTGCAG,11400 fluorescence intensity (a.u.)
11,GACCGAGCAGTCCTCCTATGTAAGTTCTTCACTTCTTGTTCGGAGTCACCTAGTGCAG,8940 fluorescence intensity (a.u.)
12,CCTGTCCTGTTACGCTTGACTACTCTCGTTGCCACGTCACCGGAGTCACCTAGTGCAG,10700 fluorescence intensity (a.u.)
13,GTTATTCTCTTATTTCACGATTATTAAGCAGACTCTGTTTCGGAGTCACCTAGTGCAG,9600 fluorescence intensity (a.u.)
14,ATTAATTATGTCATAAACTGTTGTTGATTTGTGCCAGTTTCGGAGTCACCTAGTGCAG,10000 fluorescence intensity (a.u.)
15,TGGCCGCGGCTGCTGCTGAGTGTGGTGGTGGTGGGAGGCACGGAGTCACCTAGTGCAG,8880 fluorescence intensity (a.u.)
16,TATACCGCCTCTGTTCCATCTCTCACACTAGCTTCAGGGACGGAGTCACCTAGTGCAG,10800 fluorescence intensity (a.u.)
17,CCAGGATGATCTGTTCTTGATCGCTTTACCTTTGTTTCTCCGGAGTCACCTAGTGCAG,9240 fluorescence intensity (a.u.)
18,CCTTACGAATTTGTACCATGCATTGTTTGTGGCCTAGCTACGGAGTCACCTAGTGCAG,9750 fluorescence intensity (a.u.)
19,TAATTAATTAATTCGATCCATTTCTGCATAGTTTGCAATTCGGAGTCACCTAGTGCAG,8370 fluorescence intensity (a.u.)
20,TGTGCCGCCGTGCTGTTGTCCATCCACACTGGCGACTCCGCGGAGTCACCTAGTGCAG,13600 fluorescence intensity (a.u.)
21,CCTCCGCCGCCCTAACTACCTCCACCCTTGCCGATGACGGCGGAGTCACCTAGTGCAG,8120 fluorescence intensity (a.u.)

row,Sequence,binding signal
1,TTCAACTGGCCACATAACTCATTCCATTTCCACGCACAAACGGAGTCACCTAGTGCAG,8210 fluorescence intensity (a.u.)
2,TCGTCGGGTTGGTCTCACCTTTTTCTCCTTTTCTTTTTTTCGGAGTCACCTAGTGCAG,12100 fluorescence intensity (a.u.)
3,TACTTCTGCCACATGGATACATCACATAACACACTCGCAACGGAGTCACCTAGTGCAG,9260 fluorescence intensity (a.u.)
4,CTGTCGCAATCTTGCTTCGGTTCATTTTGTCCCTTTGCTCCGGAGTCACCTAGTGCAG,11200 fluorescence intensity (a.u.)
5,CCCAAGTTTGACTCCCTCGAGACCCACCACCACCACCACGCGGAGTCACCTAGTGCAG,8970 fluorescence intensity (a.u.)
6,TATCCCTACTACTATAAAAGGGCAGTCGTATCTTTCCTTCCGGAGTCACCTAGTGCAG,9520 fluorescence intensity (a.u.)
7,ACACGTGTGGTAACCCTTCGCTCTGCATCCTCGTCTTAATCGGAGTCACCTAGTGCAG,8880 fluorescence intensity (a.u.)
8,GAAGTCGTTATTTCCAAGCTACGTCCTGATTCTATTGATACGGAGTCACCTAGTGCAG,11100 fluorescence intensity (a.u.)
9,CTCCCATGCGTGCTAAATTAGCGTTCATGGTTGTATCTTGCGGAGTCACCTAGTGCAG,9750 fluorescence intensity (a.u.)
10,TCTATCTGGATTTGATTTTTAGTCCGTGTTTAGATCTCCTCGGAGTCACCTAGTGCAG,10000 fluorescence intensity (a.u.)
11,CATCAGTTCACCACCACCGCCCATATGCATTCATGGTCCTCGGAGTCACCTAGTGCAG,8040 fluorescence intensity (a.u.)
12,TTAGGGTGGTTACTGTAAAATTTGGACTCCTTTGCAAATTCGGAGTCACCTAGTGCAG,8260 fluorescence intensity (a.u.)
13,GAGCCCGGCCGGCTGCACCTTTCGCTAAGGCCGTGTGTTTCGGAGTCACCTAGTGCAG,8100 fluorescence intensity (a.u.)
14,GTCCTCTATATATGTAGTTGGTCTTGCTTTGACAGATATACGGAGTCACCTAGTGCAG,11600 fluorescence intensity (a.u.)
15,CTATCTACTTCCACTTATAACATTTATTTAGCTTATAGTTCGGAGTCACCTAGTGCAG,10500 fluorescence intensity (a.u.)
16,CTCCGTCTTGATATTTTCGATTTGAATTTGGACTGATCTACGGAGTCACCTAGTGCAG,9700 fluorescence intensity (a.u.)
17,ACTGTTCACTCCTCGTCCTCTTGTTTTTTTTTGGCTTCGACGGAGTCACCTAGTGCAG,14200 fluorescence intensity (a.u.)
18,GGCGGCGGGGAGGTGGCGGCAAGGGAGGCGGCGGCGAGGGCGGAGTCACCTAGTGCAG,11200 fluorescence intensity (a.u.)
19,CTCTCCATGCTATTGATGATGCACTTAGATTATGGTTTTTCGGAGTCACCTAGTGCAG,8460 fluorescence intensity (a.u.)
20,GGTTCTATACTCCTAGGGAGTACGTACTCCTGCTCTCATCCGGAGTCACCTAGTGCAG,8480 fluorescence intensity (a.u.)
21,GCTTTATCTCTTCAATAGCCTTACCTACCTTACCTTACGTCGGAGTCACCTAGTGCAG,8180 fluorescence intensity (a.u.)

# Single values from above.
# GTCCTCTATATATGTAGTTGGTCTTGCTTTGACAGATATACGGAGTCACCTAGTGCAG | binding signal: 11600 fluorescence intensity (a.u.)
# CCTGTCCTGTTACGCTTGACTACTCTCGTTGCCACGTCACCGGAGTCACCTAGTGCAG | binding signal: 10700 fluorescence intensity (a.u.)

# Later entries:

row,Sequence,binding signal
1,CCTTCTTTCCCAACTCACTTTTTTTTCGCACGCACGCTTTCGGAGTCACCTAGTGCAG,9060 fluorescence intensity (a.u.)
2,TAGCATATCTTTATTTCTTTCAGTATTGCAACTGAGCATTCGGAGTCACCTAGTGCAG,9760 fluorescence intensity (a.u.)
3,GGTGACTGATAATTATTATTTTCTTTGTTTCACATTATACCGGAGTCACCTAGTGCAG,14200 fluorescence intensity (a.u.)
4,CCCCACCTGTCAGCTTCCATGGCATGATCATTTCATCTTCCGGAGTCACCTAGTGCAG,13600 fluorescence intensity (a.u.)
5,CTACACGTTGAATTATTTGCTTATCACTTTCCCTATCAGCCGGAGTCACCTAGTGCAG,9100 fluorescence intensity (a.u.)
6,CAACCTTATCCTCTTGATTCTTCCTCTCCTCTCTCTCTCACGGAGTCACCTAGTGCAG,8710 fluorescence intensity (a.u.)
7,TTTTGGGGTGGGTTTTGGTATCTGATGCTTACGGGCATCTCGGAGTCACCTAGTGCAG,18100 fluorescence intensity (a.u.)
8,CACTCCGCCTGGCCCTCCGCTCCGCCGCCGCTCCGCCGGCCGGAGTCACCTAGTGCAG,10500 fluorescence intensity (a.u.)
9,AACATTTTCCTTTGTAGCTAGGTTTCTGTTATCGGTTTTCCGGAGTCACCTAGTGCAG,14300 fluorescence intensity (a.u.)
10,CATTGTTCATATTCAATGTTTGACCGTTCGTCTTATTTGACGGAGTCACCTAGTGCAG,10200 fluorescence intensity (a.u.)
11,TGATATGTTGGTGAATGGTAATTTTTTGGGTTGATATATTCGGAGTCACCTAGTGCAG,11200 fluorescence intensity (a.u.)
12,GCCTGCCCGGCCACATCATGTTTCCATCGTTGTCCTCCTTCGGAGTCACCTAGTGCAG,15700 fluorescence intensity (a.u.)
13,TTTGTTTTATAAATCCGTCTCGCAATCATAGTAATATTATCGGAGTCACCTAGTGCAG,8300 fluorescence intensity (a.u.)
14,GCACAGTGGGAGGCCCGCGTTCTTTTTTTTTCGCCGGTTTCGGAGTCACCTAGTGCAG,10000 fluorescence intensity (a.u.)
15,TTTGACCAACCGAAACTCGACGGCCCACCCACCAACCACCCGGAGTCACCTAGTGCAG,9420 fluorescence intensity (a.u.)
16,CATGGTACCTATTGCAGCTAGTCATAACAAGTTGTTCATACGGAGTCACCTAGTGCAG,8210 fluorescence intensity (a.u.)
17,CTATTTGCTTCGGTTGCACATTTTTTTTAATTACACATTACGGAGTCACCTAGTGCAG,8600 fluorescence intensity (a.u.)
18,AATCCTCATTCTTTCCTATTGGGTATATACATTACAATTACGGAGTCACCTAGTGCAG,9530 fluorescence intensity (a.u.)
19,AGCTATTCTAGTATTATTGGTTGCATGTTCATTAGTTTTGCGGAGTCACCTAGTGCAG,9600 fluorescence intensity (a.u.)
20,TCAAATCCCACAGCTGTCACAATTTATTCTTTTTCCCTTTCGGAGTCACCTAGTGCAG,10800 fluorescence intensity (a.u.)
21,CAATTGAATTCTGCAAAACATCACCTCCTGTCTTCAATTCCGGAGTCACCTAGTGCAG,10500 fluorescence intensity (a.u.)

row,Sequence,binding signal
1,GGTTTCCGTGGTGGGCCGGTTTGGGCTTTTCTTTTTTACACGGAGTCACCTAGTGCAG,18500 fluorescence intensity (a.u.)
2,GTAACTCTGCCACTTGGGCCTATTTCTACTTGTTAAAGCACGGAGTCACCTAGTGCAG,9860 fluorescence intensity (a.u.)
3,AGGGTTCGTCTTGGCTATACAGTCGCTTGGATTTCTTATGCGGAGTCACCTAGTGCAG,12000 fluorescence intensity (a.u.)
4,TTCCACCCTCGCCGTCGAGCCGCACCACCGCCGCTTCGCCCGGAGTCACCTAGTGCAG,9880 fluorescence intensity (a.u.)
5,AACCCTTGTTACGTGCAATCACATTGGCCCCAGTTCATCACGGAGTCACCTAGTGCAG,8120 fluorescence intensity (a.u.)
6,CCCTTCTCCAACCCCGCTTCAAATTTGGATCGCGTCGATTCGGAGTCACCTAGTGCAG,8470 fluorescence intensity (a.u.)
7,GCACGAGCCGACGATCCCAGTACACCCAACATGGCCACATCGGAGTCACCTAGTGCAG,9020 fluorescence intensity (a.u.)
8,GATGGAACCGCCCTATTGGATGACAACGCCAGTCAGTCTGCGGAGTCACCTAGTGCAG,8160 fluorescence intensity (a.u.)
9,GCGTACATAGTTTTCAGCCTCTGAACCTTTTTCAGTTTCACGGAGTCACCTAGTGCAG,8150 fluorescence intensity (a.u.)
10,TTTTCTCAATTGGATAGTCCATATTTTGTTGCCTATGAACCGGAGTCACCTAGTGCAG,8250 fluorescence intensity (a.u.)
11,CCCTATATACGCAAGCTTCCTTCCACCTCGCCCTTTTACTCGGAGTCACCTAGTGCAG,8660 fluorescence intensity (a.u.)
12,CTCCGCCGCTCGCTCCGACTCCGAGCCTTAAACCCTTCTGCGGAGTCACCTAGTGCAG,11400 fluorescence intensity (a.u.)
13,GGTCGCGTCGCCCCGCTCCAACTCTCCAAGCGGAAACACACGGAGTCACCTAGTGCAG,8890 fluorescence intensity (a.u.)
14,AACGTTGATTTGTTGATAGAGTATGGTTATTGATGCCCCTCGGAGTCACCTAGTGCAG,8240 fluorescence intensity (a.u.)
15,AATTGCTCTTGCGGCGCCGCGGATTCTTCGTCTCCACCACCGGAGTCACCTAGTGCAG,8080 fluorescence intensity (a.u.)
16,GACATTCCCCACGACACCTCTCTCTTCCTCTCGCTCTTGGCGGAGTCACCTAGTGCAG,8680 fluorescence intensity (a.u.)
17,GCGAGGGAATTTCGCGTTGTTTTTTTTGTGTTTCCTTCGCCGGAGTCACCTAGTGCAG,13300 fluorescence intensity (a.u.)
18,TGTGCGGTTTCGTTTCTTGGTTTGGATTTTACGGGAGGTGCGGAGTCACCTAGTGCAG,11500 fluorescence intensity (a.u.)
19,ATCTTCCACACGATTTTCGCCTATAAAATGCACGGTAAACCGGAGTCACCTAGTGCAG,8450 fluorescence intensity (a.u.)
20,AACTCTACAATCAACAAATCCCCATTTGCAACGGTCAAAACGGAGTCACCTAGTGCAG,8280 fluorescence intensity (a.u.)
21,ACATACAAACTTCCAACTTTTCCGTCACATCGTTTTAATTCGGAGTCACCTAGTGCAG,8770 fluorescence intensity (a.u.)

# 2 successive records out of the list so far, quoted:
row,Sequence,binding signal
20,TGTGCCGCCGTGCTGTTGTCCATCCACACTGGCGACTCCGCGGAGTCACCTAGTGCAG,13600 fluorescence intensity (a.u.)
21,CCTCCGCCGCCCTAACTACCTCCACCCTTGCCGATGACGGCGGAGTCACCTAGTGCAG,8120 fluorescence intensity (a.u.)
